This note sets out measurements from PubChem BioAssay AID445 (National Center for Advancing Translational Sciences (NCATS), 2006).

The list shows a part of the results. Further columns of the screen follow, without active or inactive calls. Compounds called inactive in the main read-out are mostly missing here. Words in brackets tell the shape of the fitted curve; partial curves, single points and poor fits give uncertain potencies.

The nature of this test: IkB Signaling. As to conditions: ABC-DLBCL IkBa-CBG/CBR dual luciferase ratio (green luciferase fused to IkBa over red control in OCI-Ly3 lymphoma cells), 4 h; measured here: control luc red channel unless noted. In outline: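 Luminescence ratio of IκBα-fused green versus native red beetle luciferase in OCI-Ly3 cells, 4 h post-doxycycline with compound; red signal alone, scaled from basal (0%) to zero light (-100%), flagged nonspecific or cytotoxic effects.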
Broadly, the AC50 is the midpoint of the concentration-response curve, whichever way the signal moves. In the case of `COc1ccc(CCn2cc3c(c2-c2ccccc2Br)c(=O)n(C)c(=O)n3C)cc1OC`, the AC50 was 39.8 µM [falling, single point].

`Cc1noc(C)c1COC(=O)c1cccc(S(=O)(=O)N2CCCCCC2)c1`: the concentration at half-maximal activity (AC50) is 7.94 µM [falling, partial curve].

Consider `COc1cccc(-c2cn3c(n2)sc2cc(C(=O)NCc4cccs4)ccc23)c1`, for which the half-maximal activity concentration (AC50) was 25.1 µM [falling, single point].

Consider `COc1ccc2oc(=O)cc(CN3CCN(C(=O)c4ccccc4F)CC3)c2c1`, for which the AC50 was 39.8 µM [falling, single point].

As for `O=C(Nc1nc(-c2cccs2)cs1)c1cccc(S(=O)(=O)N2CCCCC2)c1`, the half-maximal activity concentration (AC50) was 3.16 µM [falling, full curve, poor fit].

For the compound `Cc1[nH]nc2c1-c1nc3ccccc3nc1C(C)(C)C2`, the AC50 is 12.6 µM [falling, partial curve].

As to `Cc1ccc(C)c(Cn2c(=O)c3c(nc4n3CCN4c3ccc(F)cc3)n(C)c2=O)c1`, the AC50 is 3.16 µM [falling, single point].

As for `CCn1c(CN2CCC(C)CC2)nc2cc(NC(=O)c3ccccc3[N+](=O)[O-])ccc21`, the AC50 is 0.794 µM [falling, partial curve].

Consider `CCOC(=O)c1c(C)[nH]c(CCC(=O)NCCCN2CCN(c3cccc(Cl)c3)CC2)c1C`, for which the concentration at half-maximal activity (AC50) is 31.6 µM [falling, single point].

As for `CCOc1ccc(-n2c(Cc3ccccc3)nnc2SCc2nc(-c3ccccc3C)no2)cc1`, the AC50 is 31.6 µM [falling, partial curve].

Turning to `COc1cc(-c2nc(-c3cccc(C)c3)no2)cc(OC)c1OC`, the AC50 is 12.6 µM [falling, partial curve].

In the case of `CCS(=O)(=O)N1CCc2cc(C(=O)N3CCN(c4cccc(C(F)(F)F)c4)CC3)ccc21`, the concentration at half-maximal activity (AC50) was 25.1 µM [falling, single point].

As to `Cc1ccc(NC(=O)C(=O)NCC(c2cccnc2)N2CCOCC2)cc1C` (stereo not given), the AC50 was 12.6 µM [falling, partial curve].

As to `C=COCCNC(=O)Nc1ccc(Cl)c(Cl)c1`, the half-maximal activity concentration (AC50) is 25.1 µM [falling, single point].

Turning to `Oc1cccc(C(Nc2ccccn2)c2ccc3cccnc3c2O)c1Cl` (stereo not given), the AC50 is 31.6 µM [falling, partial curve].

For the compound `COc1ccc(OC)c(-c2cc(C(=O)N3CCCc4ccccc43)no2)c1`, the concentration at half-maximal activity (AC50) is 12.6 µM [falling, partial curve].

As to `Fc1cccc(-c2nc(-c3ccncc3)no2)c1`, the half-maximal activity concentration (AC50) is 3.16 µM [rising, full curve].

With `Cc1ccc(C(=O)c2oc3ccccc3c2NC(=O)c2cc(=O)c3ccccc3o2)cc1`, the half-maximal activity concentration (AC50) was 20 µM [rising, partial curve].

Regarding `CCOC(=O)Cc1ccc(NC(=O)n2ncc3c(C)cccc32)cc1`, the AC50 is 39.8 µM [falling, partial curve].

Take `COc1ccc(OC)c(NC(=O)c2cc(-c3ccc(C)cc3O)n[nH]2)c1`: the concentration at half-maximal activity (AC50) was 3.16 µM [falling, partial curve].

With `Clc1ccccc1OCc1nc(-c2ccccn2)no1`, the AC50 was 12.6 µM [falling, partial curve].

Consider `COC(=O)c1ccc(C2Nc3c(C)cc(C)cc3C3C=CCC32)cc1` (stereo not given), for which the AC50 is 6.31 µM [falling, partial curve].

Take `COc1ccc(C(CNC(=O)COc2ccc(C)c(C)c2)N2CCCCC2)cc1` (stereo not given): the concentration at half-maximal activity (AC50) is 31.6 µM [falling, single point].

As to `O=C(Nc1cccc(S(=O)(=O)c2cccc(NC(=O)C3CC3)c2)c1)C1CC1`, the half-maximal activity concentration (AC50) was 10 µM [falling, partial curve].

Consider `COc1ccc(NC(=O)CSc2nc3nc(C)cc(C)n3n2)cc1`, for which the AC50 was 1.58 µM [rising, full curve, poor fit].

In the case of `Cc1c(CNCc2ccc(Cl)cc2)c(C(=O)O)c(C)n1Cc1ccc(F)cc1`, the concentration at half-maximal activity (AC50) is 3.16 µM [falling, full curve].

On to `c1cc(OCC2CO2)cc(OCC2CO2)c1` (stereo not given), for which the concentration at half-maximal activity (AC50) was 15.8 µM [rising, partial curve] [measured here: IkB-luc green channel].

Consider `O=C(Nc1cccc(NC(=O)N2CCN(c3ccccc3)CC2)c1)N1CCN(c2ccccc2)CC1`, for which the AC50 is 3.16 µM [falling, partial curve].

On to `Cn1c(=O)oc2cc(S(=O)(=O)N3CCCC(C(=O)N4CC=C(c5ccccc5)CC4)C3)ccc21` (stereo not given), for which the AC50 is 3.98 µM [falling, full curve, poor fit].

On to `COc1ccccc1OCC(=O)Nc1ccccn1`, for which the AC50 is 7.94 µM [falling, partial curve].

As for `CCC1CCCCN1S(=O)(=O)c1ccc(NC(=O)c2cc(=O)c3ccccc3o2)cc1` (stereo not given), the AC50 was 5.01 µM [falling, partial curve, poor fit].

`CCN(CCCNC(=O)c1cc2c(=O)[nH]c3ccccc3c2s1)c1ccccc1`: the AC50 is 20 µM [rising, partial curve].

As to `CCCCOc1ccc(C2c3c(-c4ccccc4O)n[nH]c3C(=O)N2Cc2ccncc2)cc1OC` (stereo not given), the concentration at half-maximal activity (AC50) was 31.6 µM [falling, single point].

As for `CC(=O)c1cccc(NC(=O)Cn2c(SCC(=O)Nc3ccc(F)cc3)nc3ccccc32)c1`, the AC50 was 10 µM [falling, partial curve].

Consider `COc1ccc(CCN2C(=O)N(c3ccc(F)cc3)C(=O)C2CC(=O)Nc2ccccc2)cc1` (stereo not given), for which the AC50 is 15.8 µM [falling, partial curve].

Take `Cc1cccc(NC(=O)Cn2c(=O)n(Cc3ccc(C(=O)NCc4ccc5c(c4)OCO5)cc3)c(=O)c3ccccc32)c1`: the AC50 is 0.126 µM [rising, full curve, poor fit].

As for `O=C1C2C3C=CC(CO)(O3)C2C(=O)N1c1ccc(-c2ccccc2)cc1` (stereo not given), the AC50 was 1.58 µM [falling, partial curve].

For `CCOc1ccc(C(=O)c2cn(CC(=O)Nc3cc(OC)cc(OC)c3)c3ccc(F)cc3c2=O)cc1`, the AC50 is 25.1 µM [falling, single point].

In the case of `COc1ccc(NC(=O)Cn2c(=O)oc3cc(S(=O)(=O)NC(C)C)ccc32)cc1OC`, the AC50 is 0.631 µM [rising, full curve, poor fit].

As to `Cc1ccccc1Cn1c(CCCNC(=O)C2CCCCC2)nc2ccccc21`, the concentration at half-maximal activity (AC50) was 15.8 µM [falling, partial curve].
